The list shows a part of the results. Further columns of the screen follow, without active or inactive calls. The list favours compounds with an active or inconclusive main result. Words in brackets tell the shape of the fitted curve; partial curves, single points and poor fits give uncertain potencies.

The record followed here is PubChem BioAssay AID493014 (National Center for Advancing Translational Sciences (NCATS), 2011).

This assay can be described thus: qHTS Assay to Find Inhibitors of Chronic Active B-Cell Receptor Signaling. The note with it: ABC-DLBCL IkBa-CBG/CBR reporter, luminescence ratio (green luciferase fused to IkBa over red control in TMD8 lymphoma cells), 4 h. The method in brief: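 Concentration-response series (up to 46 uM) were applied to TMD8 dual-reporter cells for 4 h at 37C with doxycycline. Green/red ratio, after filter-overlap correction, defined %Activity; red signal alone was normalised to basal cells and zero luminescence.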
(Quantitative high-throughput screening tests each substance at several concentrations.)

Setting [1] is: measured here: CBR red luminescence, cell number.
Setting [2] is: measured here: IkBa-CBG green luminescence.

As to `Cc1ccc(NC(=O)N2CCc3ccccc3C2)cc1C`, the concentration at half-maximal activity (AC50) under setting [1] was 11.2 µM [falling, single point].

As to `NC(=O)c1ccc(NC(=O)c2cccc(Oc3ccccc3)c2)cc1`, the AC50 under setting [1] was 2 µM [falling, full curve].

For `CCCN1CN=C(Nc2nc3ccccc3o2)NC1`, the AC50 under setting [1] is 6.31 µM [rising, single point].

Regarding `O=C(Nc1cccc(Br)c1)c1cccc(OC(=S)N2CCOCC2)c1`, under setting [1], the AC50 was 17.8 µM [falling, single point].

With `Brc1cccc(CNc2nc3ccccc3n2CCN2CCOCC2)c1`, under setting [1], the half-maximal activity concentration (AC50) is 17.8 µM [falling, single point].

As to `COc1ccc(/C=N/NC(=O)c2ccoc2C)cc1COc1c(C)cccc1C`, under setting [1], the AC50 was 12.6 µM [falling, partial curve, poor fit].

Take `COc1c(C)cccc1C(=O)Nc1ccc(OCC(=O)N2CCOCC2)cc1C`: the AC50 under setting [1] was 0.562 µM [falling, full curve].

For the compound `COc1ccc(Cc2nnc(SCC(=O)N(C)CC(=O)Nc3ccc(C)cc3)o2)cc1`, the AC50 under setting [1] is 29.1 µM [rising, single point].

Regarding `Cc1ccc(S(=O)(=O)N2CCN(C(=O)Cn3nc(C)c([N+](=O)[O-])c3C)CC2)c(C)c1`, the AC50 under setting [1] was 15.8 µM [falling, single point].

`C=C(C)C(=O)N1CC2(CC(c3cccc(NC(=O)c4ccccc4)c3)=NO2)C[C@@H]1C(N)=O` (stereo partly drawn): the AC50 under setting [1] is 10 µM [falling, partial curve].

As to `Cc1ccc2[nH]c3nc(NN)nnc3c2c1`, under setting [1], the concentration at half-maximal activity (AC50) is 28.2 µM [falling, single point].

For the compound `COc1cc([N+](=O)[O-])ccc1N/C=C/C(=O)c1cccs1`, the AC50 under setting [1] is 7.08 µM [falling, partial curve, poor fit].

Regarding `NC(=S)N/N=C/c1ccc(-c2ccc(Cl)c(Cl)c2)o1`, the half-maximal activity concentration (AC50) under setting [1] was 20.6 µM [falling, partial curve] and the AC50 under setting [2] is 20.6 µM [falling, single point].

For the compound `COc1ccc(NS(=O)(=O)c2ccc(N)cc2)nn1`, the AC50 under setting [1] was 29.1 µM [rising, partial curve, poor fit].

For `CC(C)n1cnc2c(NCc3ccccc3)cc(N[C@H](C)CO)cc21`, the AC50 under setting [1] is 20.6 µM [falling, partial curve].

Regarding `COc1ccccc1OCC(=O)Nc1ccc(Cl)cc1`, the AC50 under setting [1] was 18.4 µM [falling, partial curve].

Take `O=C(O)c1cc2c(ccc3ccccc32)[nH]1`: the AC50 under setting [1] was 1.46 µM [rising, partial curve, poor fit].

Consider `Cc1ccc(CNC(=O)CCCCCNC(=O)N2CCn3c2nc2ccccc23)cc1`, for which the AC50 under setting [1] is 11.2 µM [falling, partial curve, poor fit].

As for `COc1nn(CC(=O)N2N=C(C)CC2(O)C(F)(F)F)cc1[N+](=O)[O-]` (stereo not drawn), the half-maximal activity concentration (AC50) under setting [1] is 13 µM [rising, partial curve, poor fit].

As for `O=C(Nc1ccc2c(c1)OCCO2)c1ccc(Cl)c(S(=O)(=O)N2CCOCC2)c1`, under setting [1], the concentration at half-maximal activity (AC50) was 35.5 µM [falling, single point].

For `COC(=O)C1C(=O)c2c(C)noc2CC1(C)C` (stereo not drawn), the half-maximal activity concentration (AC50) under setting [1] is 14.1 µM [rising, single point].

For `Cc1c2n(c3ccccc13)CC/C2=N\O`, under setting [1], the AC50 was 10 µM [rising, partial curve, poor fit].

Turning to `O=C(COc1ccccc1[N+](=O)[O-])N1CCN(C(=O)c2ccco2)CC1`, the half-maximal activity concentration (AC50) under setting [1] is 22.4 µM [falling, single point].

On to `CC(C)(C)c1cnnn1-c1ccc(C(=O)CCl)cc1`, for which, under setting [1], the concentration at half-maximal activity (AC50) is 29.1 µM [falling, single point].

In the case of `O=C(CSc1nnc(Cn2c(=O)sc3ccccc32)n1-c1ccccc1)Nc1nccs1`, the AC50 is 11.6 µM [falling, partial curve] under setting [1] and 23.1 µM [rising, partial curve, poor fit] under setting [2].

Take `O=C(O)c1cccc(NC(=O)c2cccc(NC(=O)C3CCCO3)c2)c1` (stereo not drawn): under setting [1], the concentration at half-maximal activity (AC50) was 8.91 µM [falling, partial curve].

Consider `Cc1cc(C)c2c(CN3CCN(Cc4ccccc4)CC3)cc(=O)oc2c1C`, for which, under setting [1], the AC50 is 3.16 µM [rising, single point].

As for `CCOC(=O)c1sc(N=NC2=C(O)CC(C)(C)CC2=O)c(C(=O)OCC)c1C`, the AC50 reads like this: under setting [1], 3.16 µM [falling, single point]; under setting [2], 3.98 µM [rising, partial curve, poor fit].

Consider `COc1ccc2c3n([n+]([O-])c2c1)CCN=C3c1cc(Cl)c(N)c(Cl)c1`, for which the AC50 under setting [1] is 23.1 µM [falling, partial curve].

Turning to `Cc1ccc(OCC(=O)O/N=C(\N)c2ccccn2)cc1`, the AC50 under setting [1] is 11.2 µM [falling, partial curve].

As for `CCN1C(=O)[C@H]2[C@@H](c3ccc(-c4ccc(Cl)c(Cl)c4)cc3)N[C@@](CC(C)C)(C(=O)OC)[C@H]2C1=O`, the AC50 under setting [1] is 18.4 µM [falling, partial curve, poor fit].

`CSc1ccc(NC(=O)Nc2cc(C)ccn2)cc1`: the AC50 under setting [1] is 0.1 µM [rising, full curve, poor fit].

With `Cc1cnc(NC(=O)CCCNC(=O)c2ccc(Cl)cc2)s1`, the AC50 under setting [1] was 23.1 µM [rising, single point].

Take `CCN(CC)c1ccc(NC(=O)c2[nH]c(C)c(C(C)=O)c2C)c(C)c1`: under setting [1], the AC50 is 0.146 µM [rising, full curve, poor fit].

In the case of `O=C(O)c1ccc2c3n(nc2c1)-c1ccc(Cl)cc1CO3`, the AC50 under setting [1] is 0.631 µM [falling, full curve, poor fit].

As for `O=C(Nc1ccc(Cl)cc1)[C@@H]1[C@@H]2C(=O)N(c3ccc4ccccc4c3)C(=O)[C@@H]2[C@H]2C=CC=NN21`, the AC50 under setting [1] is 1.3 µM [falling, full curve, poor fit].

Take `CSc1ccc(Cl)c(C(=O)Nc2ccc(OCC(N)=O)cc2)c1`: under setting [1], the AC50 is 35.5 µM [falling, single point].

Turning to `CN1CCC(C2(O)c3ccccc3CSc3sccc32)CC1` (stereo not drawn), the half-maximal activity concentration (AC50) under setting [1] was 29.1 µM [falling, single point].

For the compound `CCOC(=O)N1CCN(C(=O)COC(=O)C2CCN(S(=O)(=O)c3c(Cl)cccc3Cl)CC2)CC1`, under setting [1], the AC50 was 10.3 µM [rising, partial curve, poor fit].

In the case of `CCOC(=O)c1ccc(S(=O)(=O)NNc2ccc(C(F)(F)F)cn2)cc1`, the AC50 under setting [1] is 25.9 µM [falling, single point].

The AC50 is the concentration giving half of the maximal activity seen.
